Assay [1] addresses T1, GPR15-LgBiT (UniProt P49685).
T1 sequence: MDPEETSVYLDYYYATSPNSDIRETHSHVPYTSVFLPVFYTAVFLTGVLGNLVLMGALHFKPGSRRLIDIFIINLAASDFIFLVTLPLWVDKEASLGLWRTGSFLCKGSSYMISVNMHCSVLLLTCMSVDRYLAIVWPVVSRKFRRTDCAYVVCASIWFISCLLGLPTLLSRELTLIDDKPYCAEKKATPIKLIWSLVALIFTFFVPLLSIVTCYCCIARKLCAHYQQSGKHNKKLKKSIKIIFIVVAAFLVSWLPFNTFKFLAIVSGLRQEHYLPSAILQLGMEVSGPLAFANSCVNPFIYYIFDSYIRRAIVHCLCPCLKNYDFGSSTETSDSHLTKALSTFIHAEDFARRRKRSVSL
Description: split reporter; NanoBiT β-arrestin-2 recruitment, agonistic measurement; HEK293T transiently transfected with GPCR-LgBiT and SmBiT-arrestin; serially diluted stimulatory ligand (GPR15LG, CXCL12, AMD3100) for 1 h at 37 °C; fold change of AUC to buffer.

Protein sequences, listed by entry. Tags and fused reporters are not part of them.
UniProt P61073: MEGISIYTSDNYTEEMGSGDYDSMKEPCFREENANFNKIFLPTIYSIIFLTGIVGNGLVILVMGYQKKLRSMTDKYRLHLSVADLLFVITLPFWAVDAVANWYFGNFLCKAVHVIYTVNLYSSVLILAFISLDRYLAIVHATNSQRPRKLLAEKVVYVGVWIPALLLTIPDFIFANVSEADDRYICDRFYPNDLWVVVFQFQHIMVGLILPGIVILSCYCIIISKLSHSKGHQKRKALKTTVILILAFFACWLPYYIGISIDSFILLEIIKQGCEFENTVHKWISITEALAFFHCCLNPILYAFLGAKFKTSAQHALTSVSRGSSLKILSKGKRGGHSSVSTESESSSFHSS
UniProt P32121: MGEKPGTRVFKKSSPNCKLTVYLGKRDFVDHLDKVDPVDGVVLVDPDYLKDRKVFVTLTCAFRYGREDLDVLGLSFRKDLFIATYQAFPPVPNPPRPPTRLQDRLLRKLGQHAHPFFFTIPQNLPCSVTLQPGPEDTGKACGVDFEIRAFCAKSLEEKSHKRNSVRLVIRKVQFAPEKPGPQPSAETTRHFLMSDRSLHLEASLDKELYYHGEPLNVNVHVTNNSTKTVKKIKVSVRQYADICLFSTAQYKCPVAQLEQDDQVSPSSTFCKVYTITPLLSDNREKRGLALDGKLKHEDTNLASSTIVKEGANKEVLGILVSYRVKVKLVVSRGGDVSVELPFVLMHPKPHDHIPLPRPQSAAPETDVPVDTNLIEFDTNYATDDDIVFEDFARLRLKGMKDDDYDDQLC

The target in assay [2] is T1, GPR15-LgBiT. Put plainly: condition: only cells stimulated with CXCL12, without GPR15LG; split reporter; NanoBiT β-arrestin-2 recruitment, agonistic measurement, cells treated only with a ligand that did not activate the receptor (GPR15LG on CXCR4-LgBiT cells; CXCL12 on GPR15-LgBiT cells). On the technique in general: Recruitment of arrestin is a read-out of receptor activation apart from second messengers.

Assay [3] concerns the target CXCR4 N-terminally fused to Nanoluciferase (UniProt P61073). Put plainly: FRET or BRET; NanoBRET ligand binding competition; HEK293T cells stably expressing the receptor N-terminally fused to Nanoluciferase; increasing concentrations of ligands with 10 nM CXCL12-AZ568; 2 h on ice; only the binder purified. On the technique in general: BRET reads energy transfer from a luciferase to a nearby fluorophore.

These are yes or no findings as the source states them, for the method shown. Binding seen in cells or lysates may run through a third protein. Some entries that bind do so weakly or less than the wild type.

With “SmBiT-β-arrestin-2 (from UniProt P32121 1-409)”, the binding entry in assay [1] was “binds”; in assay [2], “no binding”.

As for KRRPAKAWSGRRTRLCC [GPR15LG-N (amino acids 25-41 of GPR15LG)], in assay [3], the binding result was “binds”.
